Measurements taken from ChEMBL document CHEMBL5528012, “Discovery of novel deoxyvasicinone derivatives with benzenesulfonamide substituents as multifunctional agents against Alzheimer's disease” (Eur J Med Chem, 2024).

Experiment: in vitro
Settings: PAMPA, pH 7.4

Which Papp at 50 µM does the source give for COc1cc2c(cc1OC)C(=O)C(CC1CCN(Cc3ccccc3)CC1)C2 (stereo unspecified) [DONEPEZIL] here?
Its Papp at 50 µM is 18.6 ×10⁻⁶ cm/s.
